# This is one part of the list.
# Molecular target: T1, OsSMF1 (Oryza sativa, UniProt Q6ZLB0 1-436)
# T1 sequence: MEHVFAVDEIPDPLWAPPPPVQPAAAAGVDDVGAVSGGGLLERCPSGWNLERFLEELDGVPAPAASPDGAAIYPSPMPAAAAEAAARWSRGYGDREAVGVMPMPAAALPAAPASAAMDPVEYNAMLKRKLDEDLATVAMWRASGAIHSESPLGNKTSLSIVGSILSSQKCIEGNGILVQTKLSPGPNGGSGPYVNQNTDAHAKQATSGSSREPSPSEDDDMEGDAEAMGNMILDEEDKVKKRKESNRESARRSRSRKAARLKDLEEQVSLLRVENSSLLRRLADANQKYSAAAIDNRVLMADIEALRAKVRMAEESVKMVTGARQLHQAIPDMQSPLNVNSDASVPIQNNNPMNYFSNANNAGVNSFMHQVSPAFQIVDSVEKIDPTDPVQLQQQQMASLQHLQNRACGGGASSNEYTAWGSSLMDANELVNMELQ
# Assay: protein-binding microarray (RPBM); PBS, 2% BSA, 51.3 ng/ul salmon testes DNA, 50 uM zinc acetate, 200 nM TF, 25 C, 1 h; high values mean tight binding
# Settings: protein: recombinant; tags: N-terminal polyhistidine and DsRed monomer fusion (pET32a); chain copies: 2; label: CyDye5-dUTP incorporated in the synthesized complementary strand; 3' TTTTT single-stranded linker to array surface; dsDNA, one strand shown
# Method in brief: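 Transcription factors were each fused at the N-terminus to a polyhistidine tag plus DsRed and expressed in E. coli BL21-CodonPlus before Ni–NTA purification. Binding to a double-stranded custom Agilent array was carried out with 200 nM protein at 25 °C for 1 h in PBS, 2% BSA, salmon testes DNA and 50 µM zinc acetate. The binding signal is per-feature fluorescence intensity, in arbitrary units, on an Axon 4000B scanner.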
row,Sequence,binding signal
1,TATGTGGACCATAGTGGCCTTCGGCAATATGGATTAGTAGCGGAGTCACCTAGTGCAG,47700 fluorescence intensity (a.u.)
2,CCAGTGTTGAAATTAGTTGTTATTGTTCGTCACATCATCCCGGAGTCACCTAGTGCAG,7320 fluorescence intensity (a.u.)
3,GGTGCGTGCGTACACATCCGCGCCGTGCATGCCAAGCCGGCGGAGTCACCTAGTGCAG,4160 fluorescence intensity (a.u.)
4,CCAAATTAACCCACGTTCACCTGACGCTAGCACGTTTCAGCGGAGTCACCTAGTGCAG,7380 fluorescence intensity (a.u.)
5,ACTATCATCATCTTCTACGTGGTAAGAATCGCATGATATACGGAGTCACCTAGTGCAG,3750 fluorescence intensity (a.u.)
6,AGTAGTAGTTTAAAGGAGTATATCACGTCGCTGGTCCCCGCGGAGTCACCTAGTGCAG,3160 fluorescence intensity (a.u.)
7,GACAACGACGAGCTGCTGCGCCCACTCGCCGTACATGGCGCGGAGTCACCTAGTGCAG,3140 fluorescence intensity (a.u.)
8,CGACTGGTGACGACGACCGGAGGGCCTCCTCCTCCCTTCCCGGAGTCACCTAGTGCAG,3360 fluorescence intensity (a.u.)
9,TTGGTAAACCTATAGTCATGTCTATGTGTGCATCTGTTGCCGGAGTCACCTAGTGCAG,4110 fluorescence intensity (a.u.)
10,AATAGTTAAATTAGGTTTGCTGTCGATGTCGCATACTCCGCGGAGTCACCTAGTGCAG,20800 fluorescence intensity (a.u.)
11,CAAAACAGCCGCGTTTTGGCTCACTAGTCACTTGTTTGACCGGAGTCACCTAGTGCAG,3470 fluorescence intensity (a.u.)
12,CAGAAATTCCATATGCCATATGTTAGCTTATGTCCAATTGCGGAGTCACCTAGTGCAG,3150 fluorescence intensity (a.u.)
13,AATCTTTGATGATACACTATTATGTCTGGTACTGAGATTGCGGAGTCACCTAGTGCAG,3390 fluorescence intensity (a.u.)
14,CCAAGCCGTCGTCGCGTTCACACACGCGCACCCTCTCTGCCGGAGTCACCTAGTGCAG,3600 fluorescence intensity (a.u.)
15,TCATTCCATACGCGACCGCAACAGTCATTTTGAGTTAGAACGGAGTCACCTAGTGCAG,3960 fluorescence intensity (a.u.)
16,TTTTAAGGGGCAAATCTTACCAACTTTTACTAGCGTGTCACGGAGTCACCTAGTGCAG,3680 fluorescence intensity (a.u.)
17,GTACATTCTCATGCACCGGTGACCGATGCACTGACTGGTCCGGAGTCACCTAGTGCAG,3140 fluorescence intensity (a.u.)
18,TTGGCCTCTAACCTCACTTCATAGTCATCAGTCATCACTTCGGAGTCACCTAGTGCAG,5860 fluorescence intensity (a.u.)
19,CTACGCCGCGTACGACGTCGACGCGTGGAACGGCACCGACCGGAGTCACCTAGTGCAG,3430 fluorescence intensity (a.u.)
20,TTCACAGCAGAAACCCATAATTTTCCATGTGCTGTGGCACCGGAGTCACCTAGTGCAG,3450 fluorescence intensity (a.u.)
21,ACTCTATTTAGATATTTTCCCACGCATCCGTCTCCTCCTCCGGAGTCACCTAGTGCAG,3470 fluorescence intensity (a.u.)

# In a second layout: results already given
row | Sequence | binding signal
9 | TTGGTAAACCTATAGTCATGTCTATGTGTGCATCTGTTGCCGGAGTCACCTAGTGCAG | 4110 fluorescence intensity (a.u.)
11 | CAAAACAGCCGCGTTTTGGCTCACTAGTCACTTGTTTGACCGGAGTCACCTAGTGCAG | 3470 fluorescence intensity (a.u.)
12 | CAGAAATTCCATATGCCATATGTTAGCTTATGTCCAATTGCGGAGTCACCTAGTGCAG | 3150 fluorescence intensity (a.u.)

# Next records follow.

row,Sequence,binding signal
1,TTGGCTGAGCTACTCCATATCTCCCACGCGAGTCACAAGACGGAGTCACCTAGTGCAG,37200 fluorescence intensity (a.u.)
2,CCAGTTCATCCACACGTGTGTAGTCCGTTTGTTGGTTGGTCGGAGTCACCTAGTGCAG,5490 fluorescence intensity (a.u.)
3,ACTACTTCCTCCGTTTCACGATGTAAGACTTTCTAACATTCGGAGTCACCTAGTGCAG,3460 fluorescence intensity (a.u.)
4,AAGAAATCAATGACCTAGTGCAGCTGGGAGGTTTACGGCACGGAGTCACCTAGTGCAG,15100 fluorescence intensity (a.u.)
5,TATTCGGTGCTACAGTTGAGTAGACACAGCTGTTTGGCTGCGGAGTCACCTAGTGCAG,3550 fluorescence intensity (a.u.)
6,GAAACTCAACACGACGAAGCCGCGGCCCGCGGAAGAGGTCCGGAGTCACCTAGTGCAG,17900 fluorescence intensity (a.u.)
7,GGAGGGCACGCACGCACAGATCCCTCCCCTCTCCTCGCTGCGGAGTCACCTAGTGCAG,3390 fluorescence intensity (a.u.)
8,AAATGCCCCTGTCTCCACCTCACTGACATATGGGCCCTGTCGGAGTCACCTAGTGCAG,5980 fluorescence intensity (a.u.)
9,CGAACGAGAATTCATGGAATCCAAGAAAAGAGACACGTGTCGGAGTCACCTAGTGCAG,5610 fluorescence intensity (a.u.)
10,AAATGGTCGAAAAGTCAACAGCGTCATACATTGAAATACGCGGAGTCACCTAGTGCAG,3900 fluorescence intensity (a.u.)
11,CCGGCACTGCCTACGTTTCTGCGCACGTCAGGATGTCGTACGGAGTCACCTAGTGCAG,7370 fluorescence intensity (a.u.)
12,GATTGGGTTGGGTAGAGCGGCCACACTATTGCGGAATTTCCGGAGTCACCTAGTGCAG,3640 fluorescence intensity (a.u.)
13,TTATTTTGGAACTGGACCTATCTAATTTCTCCTAGTCAGACGGAGTCACCTAGTGCAG,3780 fluorescence intensity (a.u.)
14,ATTTAAGCGCTTTCTCTGAATTTTCAGATATAAACATCCCCGGAGTCACCTAGTGCAG,3990 fluorescence intensity (a.u.)
15,CTTGTTCGTCGTCTCTACAGCCTACAATGAGACATCTGAACGGAGTCACCTAGTGCAG,3690 fluorescence intensity (a.u.)
16,CCAGATCCGTGCGTCACCTGCGCGCACAGGCGCACAGGCGCGGAGTCACCTAGTGCAG,35400 fluorescence intensity (a.u.)
17,CTTGTTTCATTAAGGGAAACGCTGACGACTACTTCGTCCGCGGAGTCACCTAGTGCAG,3510 fluorescence intensity (a.u.)
18,GCTATGAGGCCCATTTCGTCGTCGTCGTCGTCGTCGTCCCCGGAGTCACCTAGTGCAG,3590 fluorescence intensity (a.u.)
19,GAGGACGCCGACGCTGAAGATCACGTGGAGGCCCATGGCGCGGAGTCACCTAGTGCAG,4820 fluorescence intensity (a.u.)
20,AAGATAAGTCATTGTGTGACATGTCCTTTGGTAAATTTCTCGGAGTCACCTAGTGCAG,3830 fluorescence intensity (a.u.)
21,CATCGGACGGCCCATGTAGCCCAACTCCTCCGCTGCCACGCGGAGTCACCTAGTGCAG,3410 fluorescence intensity (a.u.)
